This passage reports binding results from PMC12133150.

Positions count from the first letter of the chain named. Names may count otherwise. No constants are given. Whether binding was seen depends on the method and setting. Binding seen in cells or lysates may run through a third protein. Some entries that bind do so weakly or less than the wild type.

For assay [1], the target named is Ten-eleven translocation 2 (TET2) (human (endogenous in HepG2)) (UniProt Q6N021). The assay can be described thus: co-IP; endogenous proteins of HepG2 cells, NP40 lysate; TET2 antibody and protein A beads, 3 hr at 4°C, then western blot; cells with or without glucagon, and with or without metformin (10 mM). Background: A western blot detects proteins with antibodies after separation by electrophoresis.

For assay [2] the target is unchanged. The assay can be described thus: co-IP; HepG2 cells transfected with HNF4α wild-type or S313 mutants, NP40 lysate; TET2 antibody and protein A beads, 3 hr at 4°C, then western blot.

B1: hepatocyte nuclear factor 4 alpha (HNF4α) (protein, UniProt P41235 1-474)
chain: MRLSKTLVDMDMADYSAALDPAYTTLEFENVQVLTMGNDTSPSEGTNLNAPNSLGVSALCAICGDRATGKHYGASSCDGCKGFFRRSVRKNHMYSCRFSRQCVVDKDKRNQCRYCRLKKCFRAGMKKEAVQNERDRISTRRSSYEDSSLPSINALLQAEVLSRQITSPVSGINGDIRAKKIASIADVCESMKEQLLVLVEWAKYIPAFCELPLDDQVALLRAHAGEHLLLGATKRSMVFKDVLLLGNDYIVPRHCPELAEMSRVSIRILDELVLPFQELQIDDNEYAYLKAIIFFDPDAKGLSDPGKIKRLRSQVQVSLEDYINDRQYDSRGRFGELLLLLPTLQSITWQMIEQIQFIKLFGMAKIDNLLQEMLLGGSPSDAPHAHHPLHPHLMQEHMGTNVIVANTMPTHLSNGQMCEWPRPRGQAATPETPQPSPPGGSGSEPYKLLPGAVATIVKPLSAIPQPTITKQEVI
Turning to B1, in assay [1], the binding result was “binds”.

B2: HNF4α wild-type (transfected) (protein, UniProt P41235 1-474)
chain: B1 chain
Turning to B2, in assay [2], the binding result is reported as “binds”.

B3: HNF4α-S313A (protein, UniProt P41235 1-474)
chain: B1 chain with S313A
Consider B3, for which the binding entry in assay [2] is reported as “binds”.
